These are yes or no findings as the source states them, for the method shown.
Target: dengue virus (DENV) non-structural protein 1 (NS1), recombinant, refolded from inclusion bodies (dengue virus (DENV)) (UniProt P14340)
Test: condition: only after solubilization at HHP and pH 12.0; SEC; Superdex 200 10/300, elution in 50 mM CAPS pH 11.0; supernatant of NS1-IBs subjected to 2.4 kbar/0.4 kbar at pH 12.0, before dialysis; both purified

Substance: dengue virus (DENV) non-structural protein 1 (NS1), recombinant, refolded from inclusion bodies (from UniProt P14340)
- binding: no binding

— PMC6347194, “Protein refolding based on high hydrostatic pressure and alkaline pH: Application on a recombinant dengue virus NS1 protein” (PLoS ONE, 2019)
